Assay results from publication PMC8599840.
Results are given in words; binding and its absence hold for the method and conditions named. Binding seen in cells or lysates may run through a third protein. Some results given as binding are weak or reduced against the parent protein; the word gives no strength.

Protein sequences, listed by entry. Tags and fused reporters are not part of them.
UniProt P29351: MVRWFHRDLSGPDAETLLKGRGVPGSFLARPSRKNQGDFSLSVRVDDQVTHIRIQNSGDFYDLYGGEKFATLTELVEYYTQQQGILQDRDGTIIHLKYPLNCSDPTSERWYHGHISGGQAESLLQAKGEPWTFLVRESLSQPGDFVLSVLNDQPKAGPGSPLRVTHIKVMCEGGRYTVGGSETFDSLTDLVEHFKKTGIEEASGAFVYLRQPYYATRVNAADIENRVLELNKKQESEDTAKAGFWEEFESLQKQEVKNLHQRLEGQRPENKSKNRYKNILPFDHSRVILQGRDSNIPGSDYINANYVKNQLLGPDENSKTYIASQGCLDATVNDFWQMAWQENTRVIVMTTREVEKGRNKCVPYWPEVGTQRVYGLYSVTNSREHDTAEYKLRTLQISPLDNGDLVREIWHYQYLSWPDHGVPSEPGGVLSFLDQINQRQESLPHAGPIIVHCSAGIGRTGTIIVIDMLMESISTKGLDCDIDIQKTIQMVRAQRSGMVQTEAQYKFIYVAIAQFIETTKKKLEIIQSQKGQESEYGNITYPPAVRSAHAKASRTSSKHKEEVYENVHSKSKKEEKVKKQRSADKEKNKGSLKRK

T1: IL-10 receptor α (mouse (endogenous in J774A.1)) (UniProt Q61727)
T1 sequence: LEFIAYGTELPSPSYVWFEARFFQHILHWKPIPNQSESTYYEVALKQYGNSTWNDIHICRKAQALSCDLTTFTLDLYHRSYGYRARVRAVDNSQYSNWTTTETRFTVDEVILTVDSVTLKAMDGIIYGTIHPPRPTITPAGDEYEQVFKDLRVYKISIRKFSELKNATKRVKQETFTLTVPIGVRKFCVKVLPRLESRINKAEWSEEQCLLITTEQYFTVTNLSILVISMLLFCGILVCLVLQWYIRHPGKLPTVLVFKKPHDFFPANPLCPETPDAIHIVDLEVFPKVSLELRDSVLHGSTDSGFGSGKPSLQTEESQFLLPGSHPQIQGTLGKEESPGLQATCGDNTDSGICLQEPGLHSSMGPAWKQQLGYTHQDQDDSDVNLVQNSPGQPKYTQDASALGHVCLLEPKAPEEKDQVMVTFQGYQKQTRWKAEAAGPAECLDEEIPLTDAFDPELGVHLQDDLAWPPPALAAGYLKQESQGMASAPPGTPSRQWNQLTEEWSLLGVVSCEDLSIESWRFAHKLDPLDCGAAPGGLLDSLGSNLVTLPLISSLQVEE


What follows are molecules tested against T1, IL-10 receptor α (mouse (endogenous in J774A.1)) (assay: co-IP; J774A.1 cells treated with or without mIL-10 (10 ng/mL) and S1PC (100, 300, 1000 µM) for 1 h; RIPA lysates incubated 1 h at RT with anti-IL-10Rα antibody on Dynabeads Protein G; washed 3 times with PBS; immunoblot).

binding | Molecule
binds | SH2-containing protein tyrosine phosphatase-1 (from UniProt P29351 1-595) (enzyme)
binds | protein tyrosine phosphatase 1B (enzyme, UniProt P35821 1-432) MEMEKEFEEIDKAGNWAAIYQDIRHEASDFPCKVAKLPKNKNRNRYRDVSPFDHSRIKLHQEDNDYINASLIKMEEAQRSYILTQGPLPNTCGHFWEMVWEQKSRGVVMLNRIMEKGSLKCAQYWPQQEEKEMVFDDTGLKLTLISEDVKSYYTVRQLELENLTTKETREILHFHYTTWPDFGVPESPASFLNFLFKVRESGSLSLEHGPIVVHCSAGIGRSGTFCLADTCLLLMDKRKDPSSVDIKKVLLEMRRFRMGLIQTADQLRFSYLAVIEGAKFIMGDSSVQDQWKELSREDLDLPPEHVPPPPRPPKRTLEPHNGKCKELFSSHQWVSEETCGDEDSLAREEGRAQSSAMHSVSSMSPDTEVRRRMVGGGLQSAQASVPTEEELSSTEEEHKAHWPSHWKPFLVNVCMATLLATGAYLCYRVCFH
binds | Src homology-2-containing inositol 5'-phosphatase 1 (enzyme, UniProt Q9ES52 1-1191) MPAMVPGWNHGNITRSKAEELLSRAGKDGSFLVRASESIPRAYALCVLFRNCVYTYRILPNEDDKFTVQASEGVPMRFFTKLDQLIDFYKKENMGLVTHLQYPVPLEEEDAIDEAEEDTVESVMSPPELPPRNIPMSAGPSEAKDLPLATENPRAPEVTRLSLSETLFQRLQSMDTSGLPEEHLKAIQDYLSTQLLLDSDFLKTGSSNLPHLKKLMSLLCKELHGEVIRTLPSLESLQRLFDQQLSPGLRPRPQVPGEASPITMVAKLSQLTSLLSSIEDKVKSLLHEGSESTNRRSLIPPVTFEVKSESLGIPQKMHLKVDVESGKLIVKKSKDGSEDKFYSHKKILQLIKSQKFLNKLVILVETEKEKILRKEYVFADSKKREGFCQLLQQMKNKHSEQPEPDMITIFIGTWNMGNAPPPKKITSWFLSKGQGKTRDDSADYIPHDIYVIGTQEDPLGEKEWLELLRHSLQEVTSMTFKTVAIHTLWNIRIVVLAKPEHENRISHICTDNVKTGIANTLGNKGAVGVSFMFNGTSLGFVNSHLTSGSEKKLRRNQNYMNILRFLALGDKKLSPFNITHRFTHLFWLGDLNYRVELPTWEAEAIIQKIKQQQYSDLLAHDQLLLERKDQKVFLHFEEEEITFAPTYRFERLTRDKYAYTKQKATGMKYNLPSWCDRVLWKSYPLVHVVCQSYGSTSDIMTSDHSPVFATFEAGVTSQFVSKNGPGTVDSQGQIEFLACYATLKTKSQTKFYLEFHSSCLESFVKSQEGENEEGSEGELVVRFGETLPKLKPIISDPEYLLDQHILISIKSSDSDESYGEGCIALRLETTEAQHPIYTPLTHHGEMTGHFRGEIKLQTSQGKMREKLYDFVKTERDESSGMKCLKNLTSHDPMRQWEPSGRVPACGVSSLNEMINPNYIGMGPFGQPLHGKSTLSPDQQLTAWSYDQLPKDSSLGPGRGEGPPTPPSQPPLSPKKFSSSTANRGPCPRVQEARPGDLGKVEALLQEDLLLTKPEMFENPLYGSVSSFPKLVPRKEQESPKMLRKEPPPCPDPGISSPSIVLPKAQEVESVKGTSKQAPVPVLGPTPRIRSFTCSSSAEGRMTSGDKSQGKPKASASSQAPVPVKRPVKPSRSEMSQQTTPIPAPRPPLPVKSPAVLQLQHSKGRDYRDNTELPHHGKHRQEEGLLGRTAMQ
